Reference: publication PMC12376529
These are yes or no findings as the source states them, for the method shown. Binding seen in cells or lysates may run through a third protein. Some results given as binding are weak or reduced against the parent protein; the word gives no strength.

Protein sequences, listed by entry. Tags and fused reporters are not part of them.
UniProt O94901: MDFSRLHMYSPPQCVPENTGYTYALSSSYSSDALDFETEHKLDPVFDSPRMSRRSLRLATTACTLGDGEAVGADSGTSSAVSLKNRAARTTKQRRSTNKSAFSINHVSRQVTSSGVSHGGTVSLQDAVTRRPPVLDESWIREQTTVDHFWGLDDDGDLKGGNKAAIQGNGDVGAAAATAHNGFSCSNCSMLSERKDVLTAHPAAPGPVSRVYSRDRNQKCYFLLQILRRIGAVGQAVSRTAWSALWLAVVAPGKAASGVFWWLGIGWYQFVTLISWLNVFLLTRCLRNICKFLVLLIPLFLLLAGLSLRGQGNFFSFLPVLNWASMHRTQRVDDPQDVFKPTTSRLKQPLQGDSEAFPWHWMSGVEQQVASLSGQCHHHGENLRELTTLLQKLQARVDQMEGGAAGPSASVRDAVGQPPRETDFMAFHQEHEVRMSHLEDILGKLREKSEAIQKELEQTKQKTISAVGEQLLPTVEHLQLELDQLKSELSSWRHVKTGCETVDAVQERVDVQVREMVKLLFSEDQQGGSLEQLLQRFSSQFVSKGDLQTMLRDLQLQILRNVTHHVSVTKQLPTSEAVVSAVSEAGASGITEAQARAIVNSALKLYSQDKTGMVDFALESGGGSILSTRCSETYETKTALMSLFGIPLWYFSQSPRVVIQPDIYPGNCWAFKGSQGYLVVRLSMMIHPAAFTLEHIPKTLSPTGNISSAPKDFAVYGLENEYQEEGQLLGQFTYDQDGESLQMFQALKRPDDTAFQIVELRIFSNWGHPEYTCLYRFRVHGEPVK

Target: nesprin 2 (human (endogenous in HeLa)) (UniProt Q8WXH0)
Test: proximity ligation; in situ Duolink PLA on fixed (4% paraformaldehyde), permeabilised (0.1% Triton X-100) progerin Tet-On HeLa cells, before and after doxycycline; anti-SUN1 with anti-Lamin A/C or anti-Nesprin 2; number and total intensity of dots per nucleus

binding: binds
Substance: SUN1 (from UniProt O94901 1-785)
